Measurements: article PMC4014428
These are yes or no findings as the source states them, for the method shown. Binding seen in cells or lysates may run through a third protein. Some entries that bind do so weakly or less than the wild type.

B1: Gcn2 YKD fragment (230–604), wild type (domain or fragment, UniProt P15442 230-604)
chain: MFKFKAVVNPKPIKLTSDIFSFSKQFLVKPYIPPESPLADFLMSSEMMENFYYLLSEIELDNSYFNTSNGKKEIANLEKELETVLKAKHDNVNRLFGYTVERMGRNNATFVWKIRLLTEYCNYYPLGDLIQSVGFVNLATARIWMIRLLEGLEAIHKLGIVHKCINLETVILVKDADFGSTIPKLVHSTYGYTVLNMLSRYPNKNGSSVELSPSTWIAPELLKFNNAKPQRLTDIWQLGVLFIQIISGSDIVMNFETPQEFLDSTSMDETLYDLLSKMLNNDPKKRLGTLELLPMKFLRTNIDSTINRFNLVSESVNSNSLELTPGDTITVRGNGGRTLSQSSIRRRSFNVGSRFSSINPATRSRYASDFEEIAV
modifications: [35S]-methionine-labeled
B2: Gcn2 YKD fragment (230–604) E379K/T518A/L527I (domain or fragment, UniProt P15442 230-604)
chain: MFKFKAVVNPKPIKLTSDIFSFSKQFLVKPYIPPESPLADFLMSSEMMENFYYLLSEIELDNSYFNTSNGKKEIANLEKELETVLKAKHDNVNRLFGYTVERMGRNNATFVWKIRLLTEYCNYYPLGDLIQSVGFVNLATARIWMIRLLKGLEAIHKLGIVHKCINLETVILVKDADFGSTIPKLVHSTYGYTVLNMLSRYPNKNGSSVELSPSTWIAPELLKFNNAKPQRLTDIWQLGVLFIQIISGSDIVMNFETPQEFLDSTSMDETLYDLLSKMLNNDPKKRLGALELLPMKFIRTNIDSTINRFNLVSESVNSNSLELTPGDTITVRGNGGRTLSQSSIRRRSFNVGSRFSSINPATRSRYASDFEEIAV
modifications: [35S]-methionine-labeled
B3: Gcn2 YKD fragment (230–604) E379K (domain or fragment, UniProt P15442 230-604)
chain: MFKFKAVVNPKPIKLTSDIFSFSKQFLVKPYIPPESPLADFLMSSEMMENFYYLLSEIELDNSYFNTSNGKKEIANLEKELETVLKAKHDNVNRLFGYTVERMGRNNATFVWKIRLLTEYCNYYPLGDLIQSVGFVNLATARIWMIRLLKGLEAIHKLGIVHKCINLETVILVKDADFGSTIPKLVHSTYGYTVLNMLSRYPNKNGSSVELSPSTWIAPELLKFNNAKPQRLTDIWQLGVLFIQIISGSDIVMNFETPQEFLDSTSMDETLYDLLSKMLNNDPKKRLGTLELLPMKFLRTNIDSTINRFNLVSESVNSNSLELTPGDTITVRGNGGRTLSQSSIRRRSFNVGSRFSSINPATRSRYASDFEEIAV
modifications: [35S]-methionine-labeled

Each binder was assayed against HA epitope-tagged LexA fusion to a Gcn2 KD segment (residues 720–999) (S. cerevisiae) (UniProt P15442) (assay: co-IP; [35S]methionine-labelled in vitro translated YKD fragments incubated with 50 µg WCE of gcn2Δ yeast HQY132 expressing LexA-HA-KD(720–999); anti-HA agarose, 4°C 2 h, breaking buffer (50 mM Tris/HCl pH 7.5, 50 mM NaCl, 0.1% Triton, 1 mM DTT); SDS-PAGE and fluorography; pellet:input ratios normalised to WT YKD).
With B1 the binding was “binds”.
With B2 the binding was “binds”.
For B3, the binding was “binds”.
